# Values from PubChem BioAssay AID1259284 (Sanger Institute, 2017).
# Screen: 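siRNA screen across the kinome seeking partners for BYL719, cetuximab or trametinib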 (primary screen)
# System: SW48 human colorectal cancer cells
# Knock-down reagent: siRNA pool against human genes
# Treatment: anchor drug BYL719 at 1 µM, cetuximab at 5 µg/ml or trametinib at 10 nM, or DMSO vehicle alone
# Read-out: 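Cell viability relative to non-targeting pool wells, replicate mean, with robust z-scores and drug synergy scores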
# Direction: robust z-score, no drug: higher = more cells survive knock-down; viability, no drug: higher = more viable cells
# Hit rule: 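Called essential when the robust z-score of viability without drug falls below -3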
# Meaning of the calls: active = essential without drug; inactive = no change without drug
# The deposit covers 794 reagents; shown is a random part of them. 16 of them (2%) count as active. 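Calls concern knock-down without drug only; drug synergy was judged apart, with scores above 0.15 taken as synergy.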 Unmarked entries are inactive. Viability is capped at 1. Not all columns of the deposit are shown. Not stated in the record: the amount of reagent, the time to read-out.
Gene,"robust z-score, no drug","viability, no drug (fraction of control)"
IP6K2 (inositol hexakisphosphate kinase 2),0.426,1
NIM1K (NIM1 serine/threonine protein kinase),0.426,1
"KRAS (KRas proto-oncogene, GTPase)",0.426,1
"PIM1 (Pim-1 proto-oncogene, serine/threonine kinase)",-0.231,0.944
PRKAB2 (protein kinase AMP-activated non-catalytic subunit beta 2),-1.9,0.801
FCSK (fucose kinase),0.426,1
NEK11 (NIMA related kinase 11),-0.894,0.887
PCK1 (phosphoenolpyruvate carboxykinase 1),-1.48,0.837
DYRK1B,0.426,1
TRPM7,0.426,1
GOLGA5 (golgin A5),-0.0466,0.959
PIK3C3 (phosphatidylinositol 3-kinase catalytic subunit type 3),0.426,1
"PFKFB3 (6-phosphofructo-2-kinase/fructose-2,6-biphosphatase 3)",-1.57,0.829
RSKR (ribosomal protein S6 kinase related),0.426,1
CDK5R2 (cyclin dependent kinase 5 regulatory subunit 2),0.426,1
SMAD4 (SMAD family member 4),0.426,1
"PFKFB4 (6-phosphofructo-2-kinase/fructose-2,6-biphosphatase 4)",0.426,1
PAK2 (p21 (RAC1) activated kinase 2),0.426,1
ETNK2 (ethanolamine kinase 2),0.426,1
MAP3K1 (mitogen-activated protein kinase kinase kinase 1),0.426,1
TRIB3 (tribbles pseudokinase 3),0.426,1
DAPK1 (death associated protein kinase 1),0.426,1
STK32B (serine/threonine kinase 32B),-2.2,0.775
PRKAA2 (protein kinase AMP-activated catalytic subunit alpha 2),0.426,1
TJP2 (tight junction protein 2),0.157,0.977
MAP3K13 (mitogen-activated protein kinase kinase kinase 13),0.0496,0.968
GCK (glucokinase),-2.81,0.722
TEC (tec protein tyrosine kinase),-0.508,0.92
CDKN2B (cyclin dependent kinase inhibitor 2B),0.426,1
BRSK1 (BR serine/threonine kinase 1),0.038,0.967
PIK3CA,-1.3,0.852
PRKCG (protein kinase C gamma),0.426,1
PRPS2 (phosphoribosyl pyrophosphate synthetase 2),0.393,0.997

Continued (4 carried over from the part before).
Gene,"robust z-score, no drug","viability, no drug (fraction of control)"
BRSK1 (BR serine/threonine kinase 1),0.038,0.967
PIK3CA,-1.3,0.852
PRKCG (protein kinase C gamma),0.426,1
PRPS2 (phosphoribosyl pyrophosphate synthetase 2),0.393,0.997
"KIT (KIT proto-oncogene, receptor tyrosine kinase)",0.426,1
EPHB1 (EPH receptor B1),0.426,1
BRD4 (bromodomain containing 4),0.426,1
CMPK1 (cytidine/uridine monophosphate kinase 1),0.426,1
MAPK14 (mitogen-activated protein kinase 14),0.426,1
STK38L (serine/threonine kinase 38 like),-0.0748,0.957
MAK (male germ cell associated kinase),0.426,1
TGFBR2 (transforming growth factor beta receptor 2),-0.467,0.923
UCKL1 (uridine-cytidine kinase 1 like 1),0.426,1
RBM10 (RNA binding motif protein 10),-0.913,0.885
TBCK (TBC1 domain containing kinase),0.426,1
ASPM (assembly factor for spindle microtubules),0.426,1
GK (glycerol kinase),0.426,1
AK2 (adenylate kinase 2),0.426,1
DAPK3 (death associated protein kinase 3),-0.703,0.903
AK7 (adenylate kinase 7),0.426,1
MKNK1 (MAPK interacting serine/threonine kinase 1),0.426,1
